# Reference: PubChem BioAssay AID1347075 (National Center for Advancing Translational Sciences (NCATS), 2019)
# Among all 400,000 compounds or so, about 5,500 (1.4%) were called active. Inconclusive means that the source gave no clear call. Such entries were picked first, then a sample of the others. Calls come from the whole dose curve; as a rule, active = well fitted cell-killing curve with a large enough effect; inconclusive = small, poorly fitted or top-dose-only effect, or effect the other way; inactive = flat fitted curve, though single readings scatter. A potency beside an inconclusive call is a rough fit, not a confirmed value.
# Assay: qHTS assay for MDR1-selective chemotherapeutics: Primary screen using the parental adenocarcinoma cell KB-3-1; note: nearly all actives have a fitted effect of over 60% in size
# Details: KB-3-1 viability, CellTiter-Glo ATP luminescence, 72 h; activity change, negative = cytotoxic: at 46.1 µM (top of the series)
# How it was run: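 KB-3-1 cells, DMEM (no phenol red) + 10% FBS; compound by pin transfer, 72 h, 37 °C. Readout: CellTiter-Glo luminescence after 10 min. Data normalized, curve-fitted.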
# % is set by controls: 0 for no effect and ±100 for the full control effect; potency is the fitted concentration of half-maximal effect.
SMILES,"activity change, negative = cytotoxic",Potency
CC(=O)c1ccc(N(CC(=O)NCc2ccc3c(c2)OCO3)C(=O)c2csnn2)cc1,inactive: 0%,–
Cc1ccc(OCC(=O)N2CCc3ccccc32)c([N+](=O)[O-])n1,–,active: 23.1 µM
CCc1nc2ccc(C(=O)NCCOc3ccc(OC)cc3)cn2c1N(C)C(=O)C1CCCCC1,inactive: 0%,–
CCC1(C)N=C(c2ccc3c(c2)OCO3)CC(c2ccccc2O)N1 (configuration not stated),inactive: 0.208%,–
CC(C)(C)C1CCN2CCCC(c3ccc([N+](=O)[O-])cc3)(C1)C21OCCO1 (configuration not stated),–,"inconclusive: 18.4 µM [cytotoxic, single point]"
C[C@H]1CCC(=O)N([C@H](CSc2ccccc2)Cc2ccccc2)CC1,–,"inconclusive: 14.6 µM [cytotoxic, single point]"
COc1ccc(NC(=O)CN2C(=O)c3cccc4cccc2c34)cc1OC,inactive: 4.02%,–
N/C(=N/OC(=O)c1cccc([N+](=O)[O-])c1)c1cccc([N+](=O)[O-])c1,–,"inconclusive: 14.6 µM [rising, partial curve]"
C(=N\Nc1nc(Nc2ccccc2)nc(Nc2ccccc2)n1)/c1cccnc1,–,"inconclusive: 29.1 µM [cytotoxic, single point]"
Cc1cc(C)c(-n2c(SCCS(=O)(=O)c3ccc(F)cc3)n[nH]c2=O)c(C)c1,inactive: -2.54%,–
COc1cccc(COc2ccc(N(C)S(=O)(=O)c3ccccc3)cc2)c1,–,"inconclusive: 29.1 µM [cytotoxic, single point]"
COc1cccc(C(C)(O)c2nc(-c3ccc(N(C)C)cc3)cs2)c1 (configuration not stated),–,"inconclusive: 20.6 µM [cytotoxic, single point]"
CC(=O)c1ccc(N2CCN(C(=S)Nc3cc(C)ccn3)CC2)cc1,–,"inconclusive: 10.3 µM [rising, partial curve, poor fit]"
CCn1c(SCC(=O)OC)nnc1-c1ccc(C)cc1,inactive: 3.14%,–
CCOc1ccc(NC(=O)CN2CCSc3ccc(S(=O)(=O)N4CCCC4)cc32)cc1,–,"inconclusive: 23.1 µM [cytotoxic, single point]"
CCn1cc(S(=O)(=O)c2ccc(C)cc2C)c(=O)c2cc(F)c(N3CCCCC3)cc21,inactive: -6.51%,–
Cc1noc(Cn2c(=O)c3ccccc3n(CC(=O)Nc3ccc(C(C)C)cc3)c2=O)n1,inactive: -4.42%,–
Cc1cc2ccc(Cl)nc2nc1C,–,"inconclusive: 25.9 µM [rising, single point]"
Cc1ccc2c(c1)C(=O)N1[C@H]3c4cc(C)ccc4OC[C@@H]3[C@H](c3ccccc3)[C@]1(C)C(=O)N2,–,"inconclusive: 20.6 µM [cytotoxic, single point]"
Clc1cccc(Cl)c1COc1ccccc1CNn1cnnc1,–,"inconclusive: 29.1 µM [cytotoxic, single point]"
O=C(NCc1ccccc1)c1ccc2c(c1)nc1n2CCOC1,inactive: -2.5%,–
COc1cc(C(=S)N2CCCC2)ccc1OCC(N)=O,inconclusive: -4.94%,–

SMILES,"activity change, negative = cytotoxic",Potency
COc1cccc(Cn2c(NCc3ccco3)nc3c2c(=O)n(C)c(=O)n3C)c1,–,"inconclusive: 18.4 µM [cytotoxic, partial curve, poor fit]"
CCCOc1ccc(C2NC(=S)NC(C)=C2C(=O)c2ccccc2)cc1OC (configuration not stated),–,"inconclusive: 23.1 µM [cytotoxic, single point]"
Cn1c(SCC(=O)N2CCCC2=O)nc2ccccc2c1=O,inconclusive: 11.9%,–
Cc1cccc(/C=C2/S/C(=N/N=C3\CC4CCC3(C)C4(C)C)NC2=O)c1 (configuration not stated),–,"inconclusive: 20.6 µM [cytotoxic, single point]"
COc1ccc(C(=O)Nc2ccc3ccccc3c2)c(OC)c1,–,"inconclusive: 11.6 µM [cytotoxic, partial curve, poor fit]"
CCc1cc2c3c([nH]c2cc1S(=O)(=O)NCCCOC)CC(C)(C)CC3=O,inconclusive: -3.88%,–
CC(C)(C)c1ccc(-n2ncc3c2CCCC3NC(=O)c2cnccn2)cc1 (configuration not stated),–,"inconclusive: 29.1 µM [cytotoxic, single point]"
CN(Cc1ccccc1)c1nc2c(c(=O)[nH]c(=O)n2C)n1Cc1ccccc1Cl,–,"inconclusive: 13 µM [cytotoxic, partial curve, poor fit]"
N#CCCn1cc(C=C(C#N)C#N)c(-c2ccc(-c3ccccc3)cc2)n1,–,"inconclusive: 23.1 µM [cytotoxic, single point]"
Cc1cc(Nc2ccccc2)nc2cc(O)ccc12,–,"inconclusive: 32.6 µM [cytotoxic, single point]"
COc1ccc(-n2cc(-c3ccc4c(c3)OCO4)n(CC(=O)Nc3cccc(C)c3)c2=O)cc1,inactive: -2.13%,–
CCOCc1cnc(C)nc1NCC(=O)c1c(C)[nH]c2ccc(OC)cc12,–,"inconclusive: 9.2 µM [cytotoxic, partial curve]"
Cc1cccc(NC(=S)N/N=C/c2cccc(O)c2)c1C,–,active: 3.26 µM
CCNC(=O)C1(C)CCN(Cc2ccc(OC(F)(F)F)cc2)C1 (configuration not stated),inactive: -0.707%,–
Cc1cc(C)n(C(C)CC(=O)Nc2ccc(C)c(F)c2)n1 (configuration not stated),inactive: 12.6%,–
CC(NC(=O)c1ccccc1F)c1cccc2ccccc12 (configuration not stated),–,"inconclusive: 29.1 µM [cytotoxic, single point]"
CCc1nnc2c3ccccc3nc(N3CCN(c4cc(C)ccc4C)CC3)n12,–,"inconclusive: 29.1 µM [cytotoxic, single point]"
CCCCCCN1C[C@H](n2cc(COC(=O)c3ccccc3)nn2)[C@@H](O)C[C@@H]1c1ccc(C)cc1,–,"inconclusive: 23.1 µM [cytotoxic, partial curve, poor fit]"
COc1ccc(-c2cc(C3CCN(C(=O)OC(C)(C)C)CC3)[nH]n2)cc1,–,"inconclusive: 20.6 µM [cytotoxic, single point]"
CC(=O)Nc1cc(C(=O)Nc2ccc3c(c2)N(C)C(=O)c2ccccc2S3)ccc1C,–,active: 4.11 µM
CC1(C)Cc2ccccc2C(/C(C#N)=N/O)=N1,inactive: -7.46%,–
COc1cccc(N2CCN(C(=O)CN(c3ccc(C)cc3)S(=O)(=O)c3c(C)n[nH]c3C)CC2)c1,–,"inconclusive: 29.1 µM [cytotoxic, single point]"
CC(=O)c1ccc(NC(=O)C2CC(c3ccc(F)cc3)=NO2)cc1 (configuration not stated),inactive: 10.4%,–

SMILES,"activity change, negative = cytotoxic",Potency
C/C(=N\NC(=O)c1nnn(-c2nonc2N)c1C)c1ccc(-c2ccccc2)cc1,–,"inconclusive: 14.6 µM [rising, single point]"
C=CCN(CC=C)C(=O)c1ccc(OC2CCN(S(=O)(=O)N(C)C)CC2)cc1,–,"inconclusive: 29.1 µM [cytotoxic, single point]"
CSc1nc(SCC(=O)NC(c2ccccc2)c2ccccc2)c2c3c(sc2n1)CN(C)CC3,–,"inconclusive: 25.9 µM [cytotoxic, single point]"
CCCCC[n+]1ccn(C2=C([O-])c3ccccc3C(=O)/C2=N\S(=O)(=O)c2ccc(Cl)cc2)c1,–,"inconclusive: 29.1 µM [cytotoxic, single point]"
CCn1c(=O)n(CCOC)c(=O)c2c3c(sc21)CCCC3,–,"inconclusive: 18.4 µM [cytotoxic, partial curve]"
CCOC(=O)CN1C(=O)C(=O)c2cc(C)ccc21,–,"inconclusive: 29.1 µM [cytotoxic, single point]"
CC(CCc1ccco1)NC(=O)Nc1cccc(F)c1 (configuration not stated),–,"inconclusive: 20.6 µM [cytotoxic, partial curve, poor fit]"
CCCCc1cc(=O)oc2cc(C)cc(OCC(=O)N3C[C@H]4C[C@@H](C3)c3cccc(=O)n3C4)c12,–,"inconclusive: 3.66 µM [cytotoxic, full curve, poor fit]"
COc1ccc(OC(=O)COc2ccc(C)cc2)cc1,–,"inconclusive: 0.0082 µM [rising, full curve]"
COc1ccc(CC(=O)Nc2cccc(-c3nnc(-c4ccco4)o3)c2)cc1,inactive: -6.77%,–
Cc1ccc(-c2nn(-c3ccccc3)cc2/C=N/NC(=O)CSc2nnc(C)n2-c2ccccc2)cc1,–,"inconclusive: 29.1 µM [cytotoxic, single point]"
O=C(c1ccc2c(c1)[nH]c(=S)n1c3ccccc3nc21)N1CCN(c2ncccn2)CC1,inactive: -0.799%,–
CCCCCNC(=O)C(c1ccccc1)n1c(=O)c(-c2cc3ccccc3[nH]2)nc2ccccc21 (configuration not stated),–,"inconclusive: 29.1 µM [cytotoxic, single point]"
COc1ccccc1-n1c(=O)oc2ccc(Cl)cc2c1=O,–,"inconclusive: 10.3 µM [cytotoxic, partial curve]"
COc1cc2c(NC3CCN(C)CC3)nc(N3CCCN(C)CC3)nc2cc1OCCCCCN(C)C,–,"inconclusive: 29.1 µM [cytotoxic, single point]"
C=CCC[C@H](Cc1ccc(F)cc1)C(=O)OC[C@@H](Cc1c[nH]c2ccccc12)NC(=O)[C@@H](CC=C)CC(=O)N[C@@H](CO)Cc1ccccc1,–,"inconclusive: 29.1 µM [cytotoxic, single point]"
CC1CCCC(C)N1C(=O)Cn1cnc2cc([N+](=O)[O-])ccc2c1=O (configuration not stated),–,"inconclusive: 25.9 µM [rising, partial curve, poor fit]"
CCCCN(C)S(=O)(=O)c1ccc(C(=O)Nc2nnc(-c3ccco3)o2)cc1,–,"inconclusive: 29.1 µM [cytotoxic, single point]"
CC(C)(C)c1ccc(-c2nc(NCc3cccnc3)c3ccccc3n2)cc1,inactive: -8.32%,–
O=C(Nc1ccc2[nH]ccc2c1)c1ccc(F)cc1,–,"inconclusive: 29.1 µM [cytotoxic, partial curve, poor fit]"
C/C(=N\Nc1nc2c(s1)CCCC2)c1ccc(Cl)cc1,–,"inconclusive: 29.1 µM [cytotoxic, single point]"

# Three entries from above, sorted by molecular weight, ascending:
SMILES,"activity change, negative = cytotoxic",Potency
C=CCN(CC=C)C(=O)c1ccc(OC2CCN(S(=O)(=O)N(C)C)CC2)cc1,–,"inconclusive: 29.1 µM [cytotoxic, single point]"
CCn1cc(S(=O)(=O)c2ccc(C)cc2C)c(=O)c2cc(F)c(N3CCCCC3)cc21,inactive: -6.51%,–
CCCCCCN1C[C@H](n2cc(COC(=O)c3ccccc3)nn2)[C@@H](O)C[C@@H]1c1ccc(C)cc1,–,"inconclusive: 23.1 µM [cytotoxic, partial curve, poor fit]"
